Data from article PMC12119004.
These are yes or no findings as the source states them, for the method shown. Some entries that bind do so weakly or less than the wild type.

The chains behind the UniProt entries cited, without tags or fusion partners.
UniProt P62136: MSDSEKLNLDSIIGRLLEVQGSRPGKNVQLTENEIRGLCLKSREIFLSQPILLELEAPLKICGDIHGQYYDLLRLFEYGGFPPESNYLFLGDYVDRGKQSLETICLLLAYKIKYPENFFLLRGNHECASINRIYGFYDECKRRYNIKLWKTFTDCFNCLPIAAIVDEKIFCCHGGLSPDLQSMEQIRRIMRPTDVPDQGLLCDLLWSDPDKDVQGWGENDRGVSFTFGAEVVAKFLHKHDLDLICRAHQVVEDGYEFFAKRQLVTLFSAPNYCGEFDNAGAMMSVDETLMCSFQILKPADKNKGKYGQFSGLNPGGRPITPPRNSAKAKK

T1: MIC25 (UniProt Q9BRQ6)
T1 sequence: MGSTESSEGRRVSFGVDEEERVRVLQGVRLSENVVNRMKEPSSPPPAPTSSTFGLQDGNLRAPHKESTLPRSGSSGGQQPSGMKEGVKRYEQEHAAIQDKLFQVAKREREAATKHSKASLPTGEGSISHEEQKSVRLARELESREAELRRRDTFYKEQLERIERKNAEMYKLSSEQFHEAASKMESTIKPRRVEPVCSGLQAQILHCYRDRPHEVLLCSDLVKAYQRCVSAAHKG


Molecular target: T1, MIC25
Assay: two-hybrid; MIC25 as bait in BD-pGBKT7, preys in AD-pGADT7; yeast AH109/Y187; mating test, beta-gal colour development at 30°C

| binding | Molecule |
| --- | --- |
| binds | PPP1CA (from UniProt P62136 1-330) (enzyme) |
| binds | APOO (protein, UniProt Q9BUR5 1-198) MFKVIQRSVGPASLSLLTFKVYAAPKKDSPPKNSVKVDELSLYSVPEGQSKYVEEARSQLEESISQLRHYCEPYTTWCQETYSQTKPKMQSLVQWGLDSYDYLQNAPPGFFPRLGVIGFAGLIGLLLARGSKIKKLVYPPGFMGLAASLYYPQQAIVFAQVSGERLYDWGLRGYIVIEDLWKENFQKPGNVKNSPGTK |
| binds | IMMT (protein, UniProt Q16891 1-758) MLRACQLSGVTAAAQSCLCGKFVLRPLRPCRRYSTSGSSGLTTGKIAGAGLLFVGGGIGGTILYAKWDSHFRESVEKTIPYSDKLFEMVLGPAAYNVPLPKKSIQSGPLKISSVSEVMKESKQPASQLQKQKGDTPASATAPTEAAQIISAAGDTLSVPAPAVQPEESLKTDHPEIGEGKPTPALSEEASSSSIRERPPEEVAARLAQQEKQEQVKIESLAKSLEDALRQTASVTLQAIAAQNAAVQAVNAHSNILKAAMDNSEIAGEKKSAQWRTVEGALKERRKAVDEAADALLKAKEELEKMKSVIENAKKKEVAGAKPHITAAEGKLHNMIVDLDNVVKKVQAAQSEAKVVSQYHELVVQARDDFKRELDSITPEVLPGWKGMSVSDLADKLSTDDLNSLIAHAHRRIDQLNRELAEQKATEKQHITLALEKQKLEEKRAFDSAVAKALEHHRSEIQAEQDRKIEEVRDAMENEMRTQLRRQAAAHTDHLRDVLRVQEQELKSEFEQNLSEKLSEQELQFRRLSQEQVDNFTLDINTAYARLRGIEQAVQSHAVAEEEARKAHQLWLSVEALKYSMKTSSAETPTIPLGSAVEAIKANCSDNEFTQALTAAIPPESLTRGVYSEETLRARFYAVQKLARRVAMIDETRNSLYQYFLSYLQSLLLFPPQQLKPPPELCPEDINTFKLLSYASYCIEHGDLELAAKFVNQLKGESRRVAQDWLKEARMTLETKQIVEILTAYASAVGIGTTQVQPE |
